Data reported in US20230357429A1.
No constants are given. Whether binding was seen depends on the method and setting.

Tests used:
TBD-6 (LC I93A) = test: competition ELISA: peptide titrated against a constant concentration of TBD-6 binding to plate-bound biotinylated TROP2
TBD-1 wt = test: competition ELISA: peptide titrated against a constant concentration of TBD-1 binding to plate-bound biotinylated TROP2

Row | binding (TBD-6 (LC I93A)) | binding (TBD-1 wt) | Binder
1 | no binding (tested: 100 uM) | no binding (tested: 100 uM) | VEFCKQWTWFGCMT (biotinylated in the binding ELISA (site not stated)) [Peptide-44]
2 | no binding (tested: 100 uM) | no binding (tested: 100 uM) | VEICKQWFYTVCLS (biotinylated in the binding ELISA (site not stated)) [Peptide-58]
